# Laboratory results as given in PMC5996148.
# The list shows a part of the results.
# Key:
# Experiment in all cases: protein microarray (ProtoArray v5.0), streptavidin-Alexa Fluor 647
# Settings in all cases: 3'-biotin; 20 mM Tris (pH 7.5), 5 mM MgCl2, 100 mM KCl, 0.1% Tween-20, A/T-rich and random oligonucleotide blockers; temperature not stated; high values mean tight binding
# KLHL20 (human) = system: KLHL20 (human)
# KLHL25 (human) = system: KLHL25 (human)
# KLHL32 (human) = system: KLHL32 (human)
# KLK1 (human) = system: KLK1 (human)
# KLK13 (human) = system: KLK13 (human)
# KLK2 (human) = system: KLK2 (human)
# KLK7 (human) = system: KLK7 (human)
# KLK9 (human) = system: KLK9 (human)
# KLRD1 (human) = system: KLRD1 (human)
# [1] = system: KN motif and ankyrin repeat domain-containing protein 4 (human)
sequence,measurement,setting,value
GGGAGGCTGAGGCAGG [G4-1 biotinylated (PQS2)],binding signal,KLHL20 (human),-0.34 z-score
same,binding signal,KLHL25 (human),-0.307 z-score
same,binding signal,KLHL32 (human),-0.361 z-score
same,binding signal,KLK1 (human),-0.325 z-score
same,binding signal,KLK13 (human),-0.298 z-score
same,binding signal,KLK2 (human),-0.323 z-score
same,binding signal,KLK7 (human),-0.337 z-score
same,binding signal,KLK9 (human),-0.336 z-score
same,binding signal,KLRD1 (human),-0.28 z-score
same,binding signal,[1],-0.355 z-score
